Values quoted from earlier work as cited in US11084814B2, “Pyrido[3, 4-d]pyrimidine derivative and pharmaceutically acceptable salt thereof” (Teijin Pharma Limited, priority 2016, dated 2021).
At least one read-out could not be matched to a standard name with certainty. At least one structure is not confirmed: it was looked up by name or label, or the drawing left a doubt.

System: glioblastoma
Details: cited from earlier work

CC(=O)c1c(C)c2cnc(Nc3ccc(N4CCNCC4)cn3)nc2n(C2CCCC2)c1=O [palbociclib]
antiproliferative effect, glioblastoma implanted intracranially (mice xenograft model, brain): not in the brain
antiproliferative effect, glioblastoma implanted in the flank (mice xenograft model, flank): exhibited an antiproliferative effect in the flank
permeability via the blood brain barrier (mice): low permeability
